Patent US9796714B2, “Calcium channel agonists” (University of Pittsburgh—Of the Commonwealth System of …, priority 2013, dated 2017)

The chains behind the UniProt entries cited, without tags or fusion partners.
UniProt Q02294, whole entry: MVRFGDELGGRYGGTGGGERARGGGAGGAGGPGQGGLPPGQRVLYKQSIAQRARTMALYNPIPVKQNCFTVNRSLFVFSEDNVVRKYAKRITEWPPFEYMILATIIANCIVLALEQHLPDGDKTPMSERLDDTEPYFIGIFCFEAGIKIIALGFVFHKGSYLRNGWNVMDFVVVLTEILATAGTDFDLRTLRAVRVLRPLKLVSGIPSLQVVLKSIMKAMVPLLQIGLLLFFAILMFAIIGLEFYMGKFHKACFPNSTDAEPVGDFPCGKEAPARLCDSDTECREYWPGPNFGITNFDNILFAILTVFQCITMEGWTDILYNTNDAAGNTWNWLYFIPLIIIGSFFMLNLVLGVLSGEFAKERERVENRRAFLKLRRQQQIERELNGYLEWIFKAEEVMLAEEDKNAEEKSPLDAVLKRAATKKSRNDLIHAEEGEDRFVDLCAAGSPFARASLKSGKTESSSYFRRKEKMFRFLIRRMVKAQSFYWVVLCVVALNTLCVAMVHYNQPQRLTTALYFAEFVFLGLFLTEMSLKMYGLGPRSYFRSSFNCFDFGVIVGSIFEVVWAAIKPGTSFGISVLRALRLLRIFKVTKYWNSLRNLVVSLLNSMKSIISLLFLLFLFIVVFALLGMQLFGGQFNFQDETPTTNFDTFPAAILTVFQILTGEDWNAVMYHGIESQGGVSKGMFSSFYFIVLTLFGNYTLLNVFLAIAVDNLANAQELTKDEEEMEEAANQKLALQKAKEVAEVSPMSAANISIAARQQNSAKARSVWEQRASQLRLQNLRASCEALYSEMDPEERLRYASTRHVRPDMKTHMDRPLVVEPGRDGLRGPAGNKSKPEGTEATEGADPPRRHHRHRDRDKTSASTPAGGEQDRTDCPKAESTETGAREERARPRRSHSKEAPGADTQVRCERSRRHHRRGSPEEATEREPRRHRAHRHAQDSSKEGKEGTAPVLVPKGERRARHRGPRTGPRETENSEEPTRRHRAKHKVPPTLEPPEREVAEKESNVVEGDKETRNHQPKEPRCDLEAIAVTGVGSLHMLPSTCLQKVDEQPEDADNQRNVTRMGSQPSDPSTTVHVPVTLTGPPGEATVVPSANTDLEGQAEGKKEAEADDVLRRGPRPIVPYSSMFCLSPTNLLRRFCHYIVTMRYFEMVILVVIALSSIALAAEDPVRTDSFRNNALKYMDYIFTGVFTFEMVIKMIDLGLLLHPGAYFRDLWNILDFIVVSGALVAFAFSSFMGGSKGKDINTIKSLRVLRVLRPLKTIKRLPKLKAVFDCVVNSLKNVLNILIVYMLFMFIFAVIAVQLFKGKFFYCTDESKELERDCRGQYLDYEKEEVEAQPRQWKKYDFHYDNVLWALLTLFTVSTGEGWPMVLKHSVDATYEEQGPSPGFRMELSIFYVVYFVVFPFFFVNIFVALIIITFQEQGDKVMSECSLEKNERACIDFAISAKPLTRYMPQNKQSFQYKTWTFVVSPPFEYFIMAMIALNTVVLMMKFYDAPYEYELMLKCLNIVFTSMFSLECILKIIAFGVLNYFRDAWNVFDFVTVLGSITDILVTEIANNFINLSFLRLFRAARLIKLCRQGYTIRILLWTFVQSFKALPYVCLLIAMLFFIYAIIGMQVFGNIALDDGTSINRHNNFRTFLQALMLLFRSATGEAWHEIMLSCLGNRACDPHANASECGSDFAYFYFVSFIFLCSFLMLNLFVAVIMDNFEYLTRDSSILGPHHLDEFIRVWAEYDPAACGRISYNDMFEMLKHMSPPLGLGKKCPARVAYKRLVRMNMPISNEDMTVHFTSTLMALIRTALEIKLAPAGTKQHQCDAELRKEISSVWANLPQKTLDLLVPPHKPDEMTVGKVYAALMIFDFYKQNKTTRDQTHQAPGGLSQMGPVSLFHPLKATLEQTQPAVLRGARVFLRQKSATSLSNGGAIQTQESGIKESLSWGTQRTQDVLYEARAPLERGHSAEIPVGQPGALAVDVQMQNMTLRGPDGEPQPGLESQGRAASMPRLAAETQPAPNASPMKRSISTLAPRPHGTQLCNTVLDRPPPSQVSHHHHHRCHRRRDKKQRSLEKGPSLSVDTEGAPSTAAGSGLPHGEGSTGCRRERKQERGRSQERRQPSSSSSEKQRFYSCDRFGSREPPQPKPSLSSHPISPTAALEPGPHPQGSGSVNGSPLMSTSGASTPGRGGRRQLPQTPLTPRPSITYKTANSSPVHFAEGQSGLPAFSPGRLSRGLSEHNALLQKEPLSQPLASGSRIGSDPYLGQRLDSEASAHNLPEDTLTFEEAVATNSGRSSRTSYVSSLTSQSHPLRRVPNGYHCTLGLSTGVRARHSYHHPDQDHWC
UniProt P27732, whole entry: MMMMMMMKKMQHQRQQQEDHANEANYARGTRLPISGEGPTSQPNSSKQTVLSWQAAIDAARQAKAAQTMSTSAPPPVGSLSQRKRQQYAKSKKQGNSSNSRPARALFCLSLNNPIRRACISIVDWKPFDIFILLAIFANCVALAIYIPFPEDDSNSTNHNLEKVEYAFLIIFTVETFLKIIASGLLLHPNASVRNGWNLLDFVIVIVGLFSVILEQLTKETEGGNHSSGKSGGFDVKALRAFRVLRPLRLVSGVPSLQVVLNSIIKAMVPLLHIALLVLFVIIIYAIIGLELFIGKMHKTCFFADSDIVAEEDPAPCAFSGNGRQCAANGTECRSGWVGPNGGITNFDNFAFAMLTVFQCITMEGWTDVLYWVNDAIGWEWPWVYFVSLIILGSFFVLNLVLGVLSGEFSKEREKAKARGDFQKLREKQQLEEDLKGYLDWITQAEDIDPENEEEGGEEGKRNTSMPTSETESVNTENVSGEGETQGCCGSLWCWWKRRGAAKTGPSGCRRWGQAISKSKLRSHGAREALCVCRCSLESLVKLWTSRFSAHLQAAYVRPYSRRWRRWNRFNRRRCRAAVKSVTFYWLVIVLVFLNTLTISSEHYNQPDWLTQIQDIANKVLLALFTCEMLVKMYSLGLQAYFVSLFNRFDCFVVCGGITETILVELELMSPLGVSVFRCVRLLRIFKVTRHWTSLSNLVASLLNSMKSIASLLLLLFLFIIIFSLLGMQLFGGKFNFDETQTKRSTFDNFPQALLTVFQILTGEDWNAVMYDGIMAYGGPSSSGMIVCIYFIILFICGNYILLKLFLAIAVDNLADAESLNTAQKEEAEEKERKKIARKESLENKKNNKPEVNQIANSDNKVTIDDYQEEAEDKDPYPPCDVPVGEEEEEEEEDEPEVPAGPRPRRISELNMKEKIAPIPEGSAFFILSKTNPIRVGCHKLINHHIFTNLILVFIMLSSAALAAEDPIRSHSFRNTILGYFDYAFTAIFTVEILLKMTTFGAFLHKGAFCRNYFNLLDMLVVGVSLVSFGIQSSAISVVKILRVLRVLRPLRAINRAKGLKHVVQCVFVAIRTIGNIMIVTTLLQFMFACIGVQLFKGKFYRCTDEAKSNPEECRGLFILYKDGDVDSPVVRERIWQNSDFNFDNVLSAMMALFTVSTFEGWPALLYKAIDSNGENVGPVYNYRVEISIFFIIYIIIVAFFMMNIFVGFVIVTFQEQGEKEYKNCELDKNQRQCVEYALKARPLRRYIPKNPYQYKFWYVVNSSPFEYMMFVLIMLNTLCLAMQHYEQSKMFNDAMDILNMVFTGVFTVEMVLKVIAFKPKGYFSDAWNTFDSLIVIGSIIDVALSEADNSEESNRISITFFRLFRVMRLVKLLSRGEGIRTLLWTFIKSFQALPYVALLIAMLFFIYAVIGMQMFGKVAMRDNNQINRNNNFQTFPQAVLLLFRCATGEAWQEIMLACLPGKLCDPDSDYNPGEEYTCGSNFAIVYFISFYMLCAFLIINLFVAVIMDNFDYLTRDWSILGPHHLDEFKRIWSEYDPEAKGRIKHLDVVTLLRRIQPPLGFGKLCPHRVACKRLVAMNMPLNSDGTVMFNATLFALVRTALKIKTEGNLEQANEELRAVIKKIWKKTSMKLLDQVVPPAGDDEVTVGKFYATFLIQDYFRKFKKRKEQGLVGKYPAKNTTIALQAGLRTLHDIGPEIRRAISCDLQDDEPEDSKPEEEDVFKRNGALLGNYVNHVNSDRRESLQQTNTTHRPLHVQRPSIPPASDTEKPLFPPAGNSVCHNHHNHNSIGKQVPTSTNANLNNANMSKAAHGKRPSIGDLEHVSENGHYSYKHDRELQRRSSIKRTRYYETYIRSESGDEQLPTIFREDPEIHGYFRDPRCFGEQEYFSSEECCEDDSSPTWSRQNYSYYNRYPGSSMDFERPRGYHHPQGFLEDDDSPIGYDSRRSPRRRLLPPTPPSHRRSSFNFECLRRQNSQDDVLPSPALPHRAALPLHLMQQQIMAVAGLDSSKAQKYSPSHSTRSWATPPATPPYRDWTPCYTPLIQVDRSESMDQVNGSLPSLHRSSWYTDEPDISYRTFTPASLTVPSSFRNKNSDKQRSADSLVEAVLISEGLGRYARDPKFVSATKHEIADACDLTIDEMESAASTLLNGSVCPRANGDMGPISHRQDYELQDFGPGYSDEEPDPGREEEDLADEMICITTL

Experiments:
[1] = target: T1, N-type Ca^2+ channel (Cav2.2) (Rattus norvegicus, UniProt Q02294); test: N-type Ca2+ channel agonist activity, whole-cell perforated patch clamp of tail currents in tsA201 cells; format: cell-based
T1 construct: expressed in transfected cells; later also transient transfection
Method: tsA201 cells expressing calcium channels. […] For subsequent evaluation of effects on N-, P/Q-, or L-type channels, tsA-201 cells were transiently transfected with Cav2.2, Cav2.1, or Cav1.3, in combination with Cavβ3 and […] (Addgene, Cambridge Mass.) using FuGENE 6 (Life Technologies, Grand Island, N.Y.). All cells were maintained in DMEM supplemented with 10% fetal bovine serum. For the stable cell line expressing N-type channels, 25 μg/mL zeocin, 5 μg/mL blasticidin, and 25 μg/mL hygromycin were added as selection agents.
Whole-cell patch clamp recordings of calcium current. […] Briefly, the pipette solution consisted of […] Cs2SO4, 60 mM CsCl, 1 mM MgCl2, 10 mM 4-(2-hydroxyethyl)-1-piperazineethanesulfonic acid (HEPES) at pH 7.4. […] Patch pipettes were fabricated from borosilicate glass and pulled to a resistance of about 1 MΩ. Before each experiment, a stock solution consisting of 3 mg amphotericin-B dissolved into 50 μL anhydrous DMSO was made. […] To measure effects on calcium channel tail currents, the tail current integral was measured before and after application of a derivative, with the integral of each trace being normalized to its peak. […]
Statistical Analysis. […] All EC50 and IC50 values and their respective errors were determined by performing 100 iterations of a logistic function curve fit. […]

[2] = target: T2, L-type (Cav 1.3) channels (Rattus norvegicus, UniProt P27732); test: L-type Ca2+ channel agonist activity, whole-cell perforated patch clamp in tsA-201 cells; format: cell-based
T2 construct: host or cells: tsA-201

CC[C@H](CO)Nc1nc(NCc2ccccc2)c2ncn(C(C)C)c2n1 [(R)-roscovitine, reference compound]
EC50 ([1]; N-Type Ca^2+ Channel Activity EC50 +/− SEM, whole cell perforated patch clamp, deactivation (tail) currents from N-type channels): 27.6 ± 1.65 µM | EC50 ([1]; N-type EC50/IC50 affinities, Table 3, calcium channel agonist): 27.6 ± 1.65 µM | EC50 [2]: > 100 µM
